In the supplement of paper PMC3334620:
Over roughly 33,000 sequences, “E-score (-0.5 to 0.5)” has its median near -8e-05; the highest 2% begin near 0.23. Some of the results follow.

The sequences below were run against T1, Nrg2 (UniProt P38082) (assay: PBM E-score (8-mer binding enrichment) (E-score (-0.5 to 0.5)); higher = stronger / more preferred TF binding). Settings: protein concentration: 100 nM; construct: GST-full length.
T1 sequence: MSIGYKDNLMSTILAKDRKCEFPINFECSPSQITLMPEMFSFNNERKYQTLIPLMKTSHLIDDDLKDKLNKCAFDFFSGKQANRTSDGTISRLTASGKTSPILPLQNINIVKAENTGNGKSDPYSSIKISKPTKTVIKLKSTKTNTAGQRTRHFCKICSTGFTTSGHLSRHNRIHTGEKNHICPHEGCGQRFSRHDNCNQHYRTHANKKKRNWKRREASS
Procedure, shortened: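 The E-score, a modified Wilcoxon-Mann-Whitney statistic, was computed by the Universal PBM Analysis Suite for every ungapped eight-base word pooled with its reverse complement. Scans behind it were normalised with masliner after bound GST-tagged yeast transcription factors were detected with fluorescent anti-GST. The proteins, at about 100-200 nM, had been applied to universal all-10-mer Agilent arrays made double-stranded by primer extension.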

Sequence | PBM E-score
CCGGGGCC | -0.204
AAAACAGC | 0.0784
ACGGAGTC | 0.00907
AGTATCCG | 0.0491
ATATCCGA | 0.235
CACCCCCC | -0.5
CCCCGGTA | -0.341
TGTCGCAA | -0.0275
AACCCTAG | 0.0468
CACGGACC | 0.0501
GTCCGATA | -0.13
CCGTAGTC | -0.137
GAGGACGC | -0.153
GAGCTGGC | -0.097
GAATGAGC | 0.0578
AAACGACC | 0.148
AAACCTCA | 0.17
ATTGTGGC | 0.1
ACACAGGA | -0.0296
GCATGAGC | -0.00406
CGTCCAGC | -0.148
GCTCCAAA | -0.202
AACGAGCA | -0.0566
ATCCTATG | -0.0287
ATCTCCGG | 0.0824

Sequence | PBM E-score
ATTAATAA | 0.217
TGAGGGAA | 0.0135
ATTTAAGG | -0.0617
AATCATGG | 0.0273
AGCAGGCC | -0.186
AATAGTCA | 0.0674
CTACGCTA | -0.104
AACGTCTC | 0.0176
GGAGGATA | -0.0422
ATCTCGAA | 0.174
ATTTCTGG | 0.0738
CTGTGAGC | 0.101
TACACGTA | 0.0289
CCCTACAC | 0.0173
CGTCATCA | -0.0517
AATGAGGT | 0.0535
CAACGCAC | 0.143
ATAATAGC | -0.0441
CTAGTCTC | -0.139
AGTCTACA | -0.264
CAACTGTG | 0.02
AGGGGGCG | -0.162
AGTTCAAC | 0.103
CATTAGGC | -0.102
CTCCAACA | 0.0834

Sequence | PBM E-score
CATACGAC | 0.0269
ATACTCAA | 0.136
CATGCCGA | 0.158
AGCGCTAA | 0.0958
CTCTATAC | -0.0911
ACCGTTTA | -0.129
ATTAGTGG | 0.15
AAGTTAAG | -0.0112
TAATACGA | 0.00217
TCTAGAAA | -0.0493
AGACCTAA | -0.109
CAATCCCC | -0.00856
GATATGAC | 0.132
AAATACAG | 0.0793
GGACTCCC | -0.169
AATGTGGT | -0.0285
AATAACCC | 0.189
TAACAAGA | -0.00432
CGGACTCA | 0.0398
AATTCGCT | 0.318
ATGCAGTG | 0.0198
AGCGTGAG | 0.0143
AGGGCTTA | -0.186
ACCTTCCA | -0.0336
ACGACCTA | 0.0156

Sequence | PBM E-score
AGGGGCTA | 0.0283
CGTCACTC | -0.18
TCACGCAA | 0.0813
CGTGCCAA | -0.033
GGCGGCAC | 0.0328
CCCTGTTA | 0.169
GAGCTGTA | -0.149
AGTGGTGG | -0.0924
AAATAAAT | 0.142
CATGTGCG | 0.0824
TATAGATA | -0.0841
CTGGGTCA | -0.13
ACCTATAC | -0.044
ATTGTAAA | -0.0203
ATTCAACG | 0.163
ATGGACTC | -0.0223
GGGGCAAC | -0.0671
AGTTTTCG | 0.147
GGCCTGCA | -0.134
ATACTTAG | 0.0678
CCCTCATA | -0.0373
TACCACCA | -0.0876
ATTTCTGA | -0.0112
GCATGGGC | -0.153
CTAAACGC | -0.0415

Sequence | PBM E-score
AAGCCCCC | -0.31
ACCGTAAC | -0.269
AGACTAAC | -0.0882
CGGGTCTC | -0.0571
GGGAGTTA | 0.0101
CGGACCAA | 0.0777
AACCAGAT | 0.0767
GTTTCTGA | 0.178
ATAGAATG | 0.0622
CGCGAGCA | 0.0427
CCCTAAAC | -0.122
TGCTCGAA | 0.0926
CCACGCTC | -0.206
ACAATGAG | -0.131
CTTCACAA | -0.111
ACGGTGAC | -0.213
ATCGACAC | -0.0125
GCGAAGTA | 0.157
CACGGTGG | -0.0259
ACCGGGGC | -0.0455
AAGCGGAC | -0.0305
CGAGAAAC | 0.0922
GACCGCGC | 0.0601
ATCGGGAG | -0.176
ATTCGCTG | 0.0561

Sequence | PBM E-score
AACCGCTT | -0.102
AGGGCCCG | 0.0729
TACCATGA | -0.0364
ACAGACAT | 0.0117
ACGTTTGC | 0.0465
GTCTTTCA | -0.177
ACCAATCA | 0.0386
ACACTTTA | 0.0666
CAATTAGC | 0.0178
CCGTCATA | -0.0182
CTGATAAG | 0.144
ACTAACTC | -0.161
ACGTCGAT | 0.062
CCACGCCC | -0.275
CCCCCACA | -0.377
ATTCTCCA | 0.0311
AGACGGGA | -0.078
ACTTGTCT | -0.0659
CTGCCGAC | 0.11
CAACCTGG | 0.0094
CCCCGGAA | -0.0849
AAATCAGA | 0.129
ACATAAAA | 0.0331
CCTACCCC | -0.0956
ATCTTTCG | 0.0875

Already shown: an excerpt of the list.
Sequence | PBM E-score
ATTAGTGG | 0.15
AAGTTAAG | -0.0112
TAATACGA | 0.00217
TCTAGAAA | -0.0493
AGACCTAA | -0.109
CAATCCCC | -0.00856
GATATGAC | 0.132
AAATACAG | 0.0793
GGACTCCC | -0.169
AATGTGGT | -0.0285
AATAACCC | 0.189
TAACAAGA | -0.00432
CGGACTCA | 0.0398
AATTCGCT | 0.318
ATGCAGTG | 0.0198
AGCGTGAG | 0.0143
AGGGCTTA | -0.186
ACCTTCCA | -0.0336
ACGACCTA | 0.0156
AGGGGCTA | 0.0283
CGTCACTC | -0.18
TCACGCAA | 0.0813
CGTGCCAA | -0.033
GGCGGCAC | 0.0328
CCCTGTTA | 0.169
GAGCTGTA | -0.149
AGTGGTGG | -0.0924
AAATAAAT | 0.142
CATGTGCG | 0.0824
TATAGATA | -0.0841
CTGGGTCA | -0.13
ACCTATAC | -0.044
ATTGTAAA | -0.0203
ATTCAACG | 0.163
ATGGACTC | -0.0223
GGGGCAAC | -0.0671
AGTTTTCG | 0.147
GGCCTGCA | -0.134
ATACTTAG | 0.0678
CCCTCATA | -0.0373
TACCACCA | -0.0876
ATTTCTGA | -0.0112
GCATGGGC | -0.153
CTAAACGC | -0.0415
AAGCCCCC | -0.31

(list continues)

Sequence | PBM E-score
AACAGTGG | 0.134
GATAGTAC | 0.0894
GAGGTTTA | -0.00946
GTAATAAC | 0.0923
AGAGGTGC | -0.259
CTAGATGA | -0.0603
CAGGCACA | -0.0982
GTGCTGGA | -0.148
ATGCCGGC | -0.0209
GCGACCGC | -0.0925
ACGCTAAC | -0.0216
GCAAGATA | 0.229
CCTGTGGA | -0.0981
ACCCCGCG | 0.0364
GTAGCAGA | 0.0929
CCCCCAAC | -0.342
TAGAACCA | -0.0179
AAGGAAGC | -0.16
GACGCCAC | -0.188
ATCGGACC | 0.136
ATTTAGAG | 0.0824
AAGCGTTA | -0.0203
